The list shows a part of the results.
Legend:
Assay in all cases: log2 fold change, soluble protein after heating vs DMSO (PISA); higher = thermal stabilisation; K562 cells, 10 uM, 30 min; active = over 0.2 and 3.5 SD of the protein, either way, in both replicates (recomputed)
[1] = compound: CC1=C(C=C(C=C1)NC(=O)C2=CC(=CC=C2)C(C)(C)C#N)NC3=CC4=C(C=C3)N=CN(C4=O)C
In short: (§1)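 K562 cells at 2×10^6 cells/mL were treated with 10 μM compound for 30 min. Aliquots were heated for 3 min across 48°C-58°C, pooled, and extracted in PBS with 0.5% NP-40 at 4°C; soluble protein was the supernatant after 21,000xg for 90 min. Soluble protein was quantified by TMTpro 16plex LC-MS/MS with channel sums equalised, and reported as log2 fold change in thermal stability against DMSO controls, with values from duplicates.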

Chains of the proteins cited; added tags and fusions are not shown. Lines headed by an entry give the natural chain unless they say otherwise; changes in a name come on top.
UniProt Q9Y490: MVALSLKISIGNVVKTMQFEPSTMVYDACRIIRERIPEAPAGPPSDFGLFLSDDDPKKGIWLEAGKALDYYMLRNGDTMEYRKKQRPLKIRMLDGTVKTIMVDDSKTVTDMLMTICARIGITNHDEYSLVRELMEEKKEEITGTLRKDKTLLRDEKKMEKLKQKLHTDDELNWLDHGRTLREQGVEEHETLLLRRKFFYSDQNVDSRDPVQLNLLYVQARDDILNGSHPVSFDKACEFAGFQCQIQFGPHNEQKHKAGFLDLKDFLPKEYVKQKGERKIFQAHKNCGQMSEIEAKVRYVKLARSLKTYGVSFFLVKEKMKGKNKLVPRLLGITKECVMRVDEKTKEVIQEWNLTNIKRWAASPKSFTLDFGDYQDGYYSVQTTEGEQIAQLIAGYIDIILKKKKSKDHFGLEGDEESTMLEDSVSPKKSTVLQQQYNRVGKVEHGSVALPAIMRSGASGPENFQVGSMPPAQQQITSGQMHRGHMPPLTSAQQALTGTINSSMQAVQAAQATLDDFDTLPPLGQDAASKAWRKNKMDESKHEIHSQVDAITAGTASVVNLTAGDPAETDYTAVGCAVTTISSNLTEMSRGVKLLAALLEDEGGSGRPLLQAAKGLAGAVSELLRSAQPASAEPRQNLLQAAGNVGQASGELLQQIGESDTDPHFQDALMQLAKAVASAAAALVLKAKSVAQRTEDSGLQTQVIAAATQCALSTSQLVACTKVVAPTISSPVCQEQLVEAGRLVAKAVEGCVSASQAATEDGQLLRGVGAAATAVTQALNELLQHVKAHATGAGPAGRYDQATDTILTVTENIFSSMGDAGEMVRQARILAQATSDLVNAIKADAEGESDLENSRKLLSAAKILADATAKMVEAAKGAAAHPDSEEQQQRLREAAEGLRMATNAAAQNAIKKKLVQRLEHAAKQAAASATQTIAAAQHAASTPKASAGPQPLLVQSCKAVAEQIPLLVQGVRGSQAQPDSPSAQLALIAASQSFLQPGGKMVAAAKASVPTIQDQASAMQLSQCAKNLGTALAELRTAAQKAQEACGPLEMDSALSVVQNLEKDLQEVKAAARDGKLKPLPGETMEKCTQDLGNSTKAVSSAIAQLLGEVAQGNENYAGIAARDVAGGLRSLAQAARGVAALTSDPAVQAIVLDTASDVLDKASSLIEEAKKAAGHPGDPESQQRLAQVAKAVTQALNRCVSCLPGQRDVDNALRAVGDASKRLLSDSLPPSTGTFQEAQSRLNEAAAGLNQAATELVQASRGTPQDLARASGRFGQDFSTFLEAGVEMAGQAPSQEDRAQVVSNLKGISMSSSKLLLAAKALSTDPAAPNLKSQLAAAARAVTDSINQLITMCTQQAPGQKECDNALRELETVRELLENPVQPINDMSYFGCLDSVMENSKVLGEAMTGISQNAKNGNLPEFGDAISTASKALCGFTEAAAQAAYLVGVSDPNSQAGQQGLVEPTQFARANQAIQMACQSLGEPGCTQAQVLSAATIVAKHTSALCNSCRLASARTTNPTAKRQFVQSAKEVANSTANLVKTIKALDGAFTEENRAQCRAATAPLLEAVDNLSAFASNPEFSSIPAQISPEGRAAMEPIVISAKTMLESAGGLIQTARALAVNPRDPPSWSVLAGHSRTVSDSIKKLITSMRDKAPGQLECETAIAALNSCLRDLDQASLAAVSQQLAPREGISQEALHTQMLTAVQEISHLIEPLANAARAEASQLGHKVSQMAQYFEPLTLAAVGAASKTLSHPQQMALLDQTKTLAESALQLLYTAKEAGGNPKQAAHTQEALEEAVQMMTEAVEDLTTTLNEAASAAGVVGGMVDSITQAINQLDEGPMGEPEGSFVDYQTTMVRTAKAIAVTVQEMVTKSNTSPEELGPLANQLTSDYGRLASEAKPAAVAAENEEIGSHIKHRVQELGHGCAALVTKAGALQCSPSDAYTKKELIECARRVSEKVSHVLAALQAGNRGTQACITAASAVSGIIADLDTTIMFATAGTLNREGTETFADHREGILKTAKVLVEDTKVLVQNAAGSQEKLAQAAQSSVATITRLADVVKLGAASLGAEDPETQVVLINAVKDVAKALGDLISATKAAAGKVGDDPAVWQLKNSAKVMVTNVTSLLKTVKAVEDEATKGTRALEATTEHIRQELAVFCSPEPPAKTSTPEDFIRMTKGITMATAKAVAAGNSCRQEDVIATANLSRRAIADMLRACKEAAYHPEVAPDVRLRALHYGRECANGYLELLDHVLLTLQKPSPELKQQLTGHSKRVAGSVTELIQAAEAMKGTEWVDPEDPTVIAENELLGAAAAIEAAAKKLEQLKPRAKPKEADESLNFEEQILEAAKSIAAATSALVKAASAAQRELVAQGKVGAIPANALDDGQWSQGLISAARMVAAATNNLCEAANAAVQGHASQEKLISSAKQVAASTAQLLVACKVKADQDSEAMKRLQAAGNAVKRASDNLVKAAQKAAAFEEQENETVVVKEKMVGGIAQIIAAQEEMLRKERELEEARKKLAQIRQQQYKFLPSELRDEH
UniProt Q9NWD8: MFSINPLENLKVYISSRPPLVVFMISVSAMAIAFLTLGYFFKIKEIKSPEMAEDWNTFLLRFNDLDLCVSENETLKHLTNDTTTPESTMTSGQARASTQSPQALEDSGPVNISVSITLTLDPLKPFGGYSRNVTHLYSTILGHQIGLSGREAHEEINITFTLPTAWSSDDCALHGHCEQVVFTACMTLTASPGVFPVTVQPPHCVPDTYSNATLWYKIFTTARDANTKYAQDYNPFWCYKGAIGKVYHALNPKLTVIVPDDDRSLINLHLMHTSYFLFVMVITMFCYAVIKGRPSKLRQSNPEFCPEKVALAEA
UniProt P42166: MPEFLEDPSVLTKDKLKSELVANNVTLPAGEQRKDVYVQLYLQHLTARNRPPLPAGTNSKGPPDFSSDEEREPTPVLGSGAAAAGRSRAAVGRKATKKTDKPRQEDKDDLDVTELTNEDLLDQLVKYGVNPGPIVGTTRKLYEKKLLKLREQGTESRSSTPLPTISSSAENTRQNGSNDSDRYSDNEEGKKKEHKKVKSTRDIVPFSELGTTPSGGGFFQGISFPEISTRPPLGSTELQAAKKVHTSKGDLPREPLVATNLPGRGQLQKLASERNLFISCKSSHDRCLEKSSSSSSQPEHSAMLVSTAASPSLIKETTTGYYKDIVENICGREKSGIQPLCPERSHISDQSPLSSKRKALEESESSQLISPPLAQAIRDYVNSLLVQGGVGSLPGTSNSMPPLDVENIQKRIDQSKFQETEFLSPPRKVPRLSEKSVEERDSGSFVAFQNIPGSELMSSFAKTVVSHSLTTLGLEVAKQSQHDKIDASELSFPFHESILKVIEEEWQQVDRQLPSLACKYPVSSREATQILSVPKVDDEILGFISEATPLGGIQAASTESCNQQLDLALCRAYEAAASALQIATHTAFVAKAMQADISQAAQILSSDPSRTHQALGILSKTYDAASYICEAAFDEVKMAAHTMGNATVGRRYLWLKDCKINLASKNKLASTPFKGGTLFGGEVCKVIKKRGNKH
UniProt P49755: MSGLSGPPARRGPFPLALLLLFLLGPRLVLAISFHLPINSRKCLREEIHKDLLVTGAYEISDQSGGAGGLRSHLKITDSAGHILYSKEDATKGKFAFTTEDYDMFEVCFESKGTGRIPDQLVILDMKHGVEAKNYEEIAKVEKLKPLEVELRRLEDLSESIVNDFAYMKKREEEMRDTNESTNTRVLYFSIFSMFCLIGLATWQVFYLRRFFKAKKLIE
UniProt P42167: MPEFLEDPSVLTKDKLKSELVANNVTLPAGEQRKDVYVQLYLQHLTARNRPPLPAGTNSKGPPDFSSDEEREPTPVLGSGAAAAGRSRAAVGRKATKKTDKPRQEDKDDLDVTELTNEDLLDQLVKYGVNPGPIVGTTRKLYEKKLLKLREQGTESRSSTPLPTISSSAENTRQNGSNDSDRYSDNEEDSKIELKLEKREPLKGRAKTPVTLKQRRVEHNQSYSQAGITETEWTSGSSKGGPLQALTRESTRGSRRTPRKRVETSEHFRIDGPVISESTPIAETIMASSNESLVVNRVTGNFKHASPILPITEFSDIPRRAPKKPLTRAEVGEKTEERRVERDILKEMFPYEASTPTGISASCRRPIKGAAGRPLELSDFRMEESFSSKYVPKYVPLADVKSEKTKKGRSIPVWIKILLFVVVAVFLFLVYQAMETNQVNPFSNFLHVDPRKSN
UniProt Q9H0R3: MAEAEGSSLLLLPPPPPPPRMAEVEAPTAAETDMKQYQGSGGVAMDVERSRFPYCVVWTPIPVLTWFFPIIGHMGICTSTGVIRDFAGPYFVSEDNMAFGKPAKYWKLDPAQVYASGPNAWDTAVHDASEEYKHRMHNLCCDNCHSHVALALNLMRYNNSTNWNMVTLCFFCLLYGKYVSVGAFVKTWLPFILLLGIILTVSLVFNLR
UniProt A5PLL7: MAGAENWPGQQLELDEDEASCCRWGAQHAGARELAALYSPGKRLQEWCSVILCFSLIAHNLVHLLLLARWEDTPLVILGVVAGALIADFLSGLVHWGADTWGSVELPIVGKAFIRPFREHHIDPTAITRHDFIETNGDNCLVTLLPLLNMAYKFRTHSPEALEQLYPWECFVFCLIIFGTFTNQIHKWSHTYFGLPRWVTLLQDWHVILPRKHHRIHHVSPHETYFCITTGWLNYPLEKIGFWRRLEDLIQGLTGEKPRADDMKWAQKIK
UniProt Q4ZIN3: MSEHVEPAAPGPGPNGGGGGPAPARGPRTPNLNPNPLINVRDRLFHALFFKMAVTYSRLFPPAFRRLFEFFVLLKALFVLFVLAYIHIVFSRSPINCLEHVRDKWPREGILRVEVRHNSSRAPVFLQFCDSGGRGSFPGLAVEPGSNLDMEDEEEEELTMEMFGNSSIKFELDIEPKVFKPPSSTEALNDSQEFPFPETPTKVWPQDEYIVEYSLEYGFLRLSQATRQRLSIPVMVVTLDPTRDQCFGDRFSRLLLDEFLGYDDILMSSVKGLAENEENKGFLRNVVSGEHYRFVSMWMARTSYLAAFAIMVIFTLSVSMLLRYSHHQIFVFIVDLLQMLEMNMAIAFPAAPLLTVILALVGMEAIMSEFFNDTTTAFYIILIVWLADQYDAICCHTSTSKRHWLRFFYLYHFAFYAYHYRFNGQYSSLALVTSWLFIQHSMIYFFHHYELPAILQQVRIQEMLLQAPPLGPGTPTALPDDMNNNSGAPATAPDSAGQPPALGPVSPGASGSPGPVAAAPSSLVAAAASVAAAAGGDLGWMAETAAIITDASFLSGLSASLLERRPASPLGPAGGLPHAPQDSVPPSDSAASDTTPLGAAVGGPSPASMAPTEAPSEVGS
UniProt Q9NYL9: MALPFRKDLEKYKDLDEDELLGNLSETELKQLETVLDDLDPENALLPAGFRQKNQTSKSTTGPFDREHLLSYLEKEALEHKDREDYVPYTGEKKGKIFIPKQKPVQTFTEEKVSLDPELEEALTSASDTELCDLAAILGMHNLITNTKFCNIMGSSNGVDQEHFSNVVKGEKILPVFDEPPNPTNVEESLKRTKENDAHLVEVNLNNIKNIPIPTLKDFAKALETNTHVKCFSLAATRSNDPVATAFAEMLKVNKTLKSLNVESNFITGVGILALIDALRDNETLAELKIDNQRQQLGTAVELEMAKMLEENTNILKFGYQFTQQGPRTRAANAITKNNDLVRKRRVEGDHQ
UniProt Q6PI78: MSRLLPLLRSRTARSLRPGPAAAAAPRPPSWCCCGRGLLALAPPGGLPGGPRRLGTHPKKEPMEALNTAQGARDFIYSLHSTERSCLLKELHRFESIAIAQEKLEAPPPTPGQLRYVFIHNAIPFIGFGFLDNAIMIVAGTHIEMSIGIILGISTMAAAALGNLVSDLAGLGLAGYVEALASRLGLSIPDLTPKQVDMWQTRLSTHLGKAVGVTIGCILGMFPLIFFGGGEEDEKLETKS
UniProt Q86UB9: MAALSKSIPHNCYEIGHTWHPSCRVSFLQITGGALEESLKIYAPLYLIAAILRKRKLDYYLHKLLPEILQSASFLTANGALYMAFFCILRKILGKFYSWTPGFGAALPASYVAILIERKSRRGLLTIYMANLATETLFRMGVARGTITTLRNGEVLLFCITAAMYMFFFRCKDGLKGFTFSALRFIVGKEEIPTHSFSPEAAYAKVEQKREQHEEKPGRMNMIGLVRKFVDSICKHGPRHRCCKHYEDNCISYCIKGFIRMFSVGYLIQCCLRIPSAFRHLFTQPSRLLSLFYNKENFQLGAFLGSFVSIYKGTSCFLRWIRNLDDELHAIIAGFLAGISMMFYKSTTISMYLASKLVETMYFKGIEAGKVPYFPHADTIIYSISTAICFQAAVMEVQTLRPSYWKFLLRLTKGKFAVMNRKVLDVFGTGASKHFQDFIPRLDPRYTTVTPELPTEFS

[2] = compound: CC1=C(C=C(C=C1)NC(=O)C2=CC(=CC=C2)N(C)C)NC(=O)C3=CC=C(C=C3)O
In short: as §1

[3] = compound: CC1=CC=C(C=C1)SC2=C3C=C(SC3=CN=C2)C(=O)N
In short: as §1

[4] = compound: CC1=NC(=CC=C1)C2=C(N=C(N2)C(C)(C)C)C3=CC4=NC=CN=C4C=C3
In short: as §1

Nexturastat A = compound: CCCCN(Cc1ccc(C(=O)NO)cc1)C(=O)Nc1ccccc1 [Nexturastat A]
In short: as §1

vemurafenib = compound: CCCS(=O)(=O)Nc1ccc(F)c(C(=O)c2c[nH]c3ncc(-c4ccc(Cl)cc4)cc23)c1F [vemurafenib]
In short: as §1

[5] = compound: CCCS(=O)(=O)Nc1ccc(F)c(C(=O)c2c[nH]c3ncc(Cl)cc23)c1F
In short: as §1

[6] = compound: CCCc1cc(C)[nH]c(=O)c1CNC(=O)c1cc(-c2ccnc(N3CCN(C)CC3)c2)cc2c1cnn2C(C)C
In short: as §1

givinostat = compound: CCN(CC)Cc1ccc2cc(COC(=O)Nc3ccc(C(=O)NO)cc3)ccc2c1 [givinostat]
In short: as §1

barasertib = compound: CCN(CCCOc1ccc2c(Nc3cc(CC(=O)Nc4cccc(F)c4)[nH]n3)ncnc2c1)CCOP(=O)(O)O [barasertib]
In short: as §1

[7] = compound: CC[C@@H]1C(=O)N(C)c2cnc(Nc3ccc(C(=O)NC4CCN(C)CC4)cc3OC)nc2N1C1CCCC1
In short: as §1

volasertib = compound: CC[C@@H]1C(=O)N(C)c2cnc(Nc3ccc(C(=O)N[C@H]4CC[C@H](N5CCN(CC6CC6)CC5)CC4)cc3OC)nc2N1C(C)C [volasertib]
In short: as §1

[8] = compound: CC[C@H](C)N1C=C(C2=C(C=C(C=C21)C3=CN=C(C=C3)N4CCNCC4)C(=O)NCC5=C(C=C(NC5=O)C)C)C
In short: as §1

epoxomicin = compound: CC[C@H](C)[C@@H](C(=O)N[C@@H]([C@@H](C)O)C(=O)N[C@@H](CC(C)C)C(=O)[C@]1(CO1)C)NC(=O)[C@H]([C@@H](C)CC)N(C)C(=O)C [epoxomicin]
In short: as §1

[9] = compound: CCn1c(C(=O)N(C2CC2)C2CC2)cc2c3c(ncn3C)c(Nc3cc(C)n(C)n3)nc21
In short: as §1

[10] = compound: CCn1cc(-c2ccnc3[nH]c(-c4cccc(CN(C)C)c4)cc23)c(-c2ccc(NC(=O)N(C)C)cc2)n1
In short: as §1

[11] = compound: CN(C)CC(=O)Nc1ccc2[nH]c(=O)c3ccccc3c2c1
In short: as §1

rosiglitazone = compound: CN(CCOC1=CC=C(C=C1)C[C@H]2C(=O)NC(=O)S2)C3=CC=CC=N3 (racemic) [rosiglitazone]
In short: as §1

[12] = compound: CN1C2=C(C3=C1C(=O)N(N=C3)CC4=CC(=CC=C4)N)SC(=C2)S(=O)C
In short: as §1

[13] = compound: CN1CCC(CNc2ccc3ncc(-c4cccc(OC(F)(F)F)c4)n3n2)CC1
In short: as §1

Measured: log2 fold change

TLN1 (UniProt Q9Y490)
inactive: [1] 0.042 | [2] -0.055 | [3] 0.029 | [4] 0.072 | Nexturastat A -0.077 | vemurafenib 0.049 | [5] 0.069 | [6] 0.001 | givinostat 0.021 | barasertib 0.021 | [7] -0.058 | volasertib -0.187 | [8] 0.047 | epoxomicin 0.044 | [9] 0 | [10] -0.027 | [11] 0.025 | rosiglitazone 0.034 | [12] -0.031 | [13] -0.032

TMPPE (UniProt Q6ZT21)
inactive: [1] 0.01 | [2] 0.011 | [3] -0.02 | [4] 0.041 | Nexturastat A -0.198 | vemurafenib 0.008 | [5] -0.037 | [6] -0.036 | givinostat 0.01 | barasertib -0.053 | [7] 0.057 | volasertib -0.002 | [8] -0.023 | epoxomicin -0.003 | [9] 0.033 | [10] -0.074 | [11] 0.097 | rosiglitazone 0.039 | [12] -0.112 | [13] 0.022

TMA16 (UniProt Q96EY4)
inactive: [1] 0.064 | [2] -0.106 | [3] -0.013 | [4] -0.112 | Nexturastat A 0.154 | vemurafenib -0.105 | [5] -0.079 | [6] 0.103 | givinostat 0.036 | barasertib -0.109 | [7] 0.159 | volasertib 0.271 | [8] 0.03 | epoxomicin -0.225 | [9] 0.017 | [10] 0.2 | [11] -0.158 | rosiglitazone -0.03 | [12] 0.215 | [13] 0.252

TMEM248 (UniProt Q9NWD8)
inactive: [1] 0.021 | [2] 0.031 | [3] 0.032 | [4] -0.018 | Nexturastat A -0.193 | vemurafenib -0.076 | [5] -0.023 | [6] -0.038 | givinostat 0.11 | barasertib -0.008 | [7] 0.204 | volasertib 0.078 | [8] -0.083 | epoxomicin 0.099 | [9] 0.017 | [10] 0.031 | [11] 0 | rosiglitazone 0.001 | [12] -0.236 | [13] 0.078

TMPO (UniProt P42166)
inactive: [1] 0.003 | [2] 0.002 | [3] -0.019 | [4] 0.011 | Nexturastat A -0.01 | vemurafenib -0.025 | [5] 0.009 | [6] -0.03 | givinostat 0.07 | barasertib 0.028 | [7] -0.078 | volasertib -0.11 | [8] 0.034 | epoxomicin 0.05 | [9] -0.068 | [10] 0.028 | [11] -0.025 | rosiglitazone 0 | [12] -0.017 | [13] -0.054

TMED10 (UniProt P49755)
inactive: [1] -0.021 | [2] -0.002 | [3] -0.009 | [4] -0.008 | Nexturastat A -0.051 | vemurafenib 0.042 | [5] -0.016 | [6] 0.005 | givinostat 0.011 | barasertib -0.01 | [7] -0.059 | volasertib 0.046 | [8] 0.006 | epoxomicin 0.184 | [9] 0.022 | [10] 0.029 | [11] 0.034 | rosiglitazone 0.009 | [12] -0.071 | [13] -0.059

TMPO isoform 2 (UniProt P42167)
inactive: [1] -0.091 | [2] -0.062 | [3] 0.027 | [4] -0.023 | Nexturastat A 0.088 | vemurafenib -0.095 | [5] -0.107 | [6] -0.004 | givinostat 0.013 | barasertib 0 | [7] 0.021 | volasertib 0.099 | [8] 0.008 | epoxomicin -0.03 | [9] 0.103 | [10] -0.156 | [11] -0.087 | rosiglitazone 0.026 | [12] -0.038 | [13] -0.069

TMEM222 (UniProt Q9H0R3)
inactive: [1] -0.144 | [2] -0.011 | [3] -0.132 | [4] -0.104 | Nexturastat A -0.07 | vemurafenib 0.059 | [5] 0.017 | [6] -0.008 | givinostat -0.038 | barasertib -0.022 | [7] 0.072 | volasertib 0.042 | [8] 0.019 | epoxomicin 0.079 | [9] -0.047 | [10] -0.011 | [11] 0.198 | rosiglitazone -0.027 | [12] 0.095 | [13] -0.057

2 records picked at random from the list so far:
TMPO isoform 2 (UniProt P42167)
inactive: [1] -0.091 | [2] -0.062 | [3] 0.027 | [4] -0.023 | Nexturastat A 0.088 | vemurafenib -0.095 | [5] -0.107 | [6] -0.004 | givinostat 0.013 | barasertib 0 | [7] 0.021 | volasertib 0.099 | [8] 0.008 | epoxomicin -0.03 | [9] 0.103 | [10] -0.156 | [11] -0.087 | rosiglitazone 0.026 | [12] -0.038 | [13] -0.069

TMPO (UniProt P42166)
inactive: [1] 0.003 | [2] 0.002 | [3] -0.019 | [4] 0.011 | Nexturastat A -0.01 | vemurafenib -0.025 | [5] 0.009 | [6] -0.03 | givinostat 0.07 | barasertib 0.028 | [7] -0.078 | volasertib -0.11 | [8] 0.034 | epoxomicin 0.05 | [9] -0.068 | [10] 0.028 | [11] -0.025 | rosiglitazone 0 | [12] -0.017 | [13] -0.054

Next results follow.

TMEM189 (UniProt A5PLL7)
inactive: [1] 0.126 | [2] -0.108 | [3] 0.043 | [4] 0.047 | Nexturastat A 0.104 | vemurafenib 0.013 | [5] 0.045 | [6] -0.043 | givinostat 0.12 | barasertib -0.029 | [7] -0.01 | volasertib -0.177 | [8] -0.07 | epoxomicin -0.08 | [9] 0.037 | [10] -0.067 | [11] 0.137 | rosiglitazone 0.013 | [12] 0.003 | [13] -0.001

TMEM259 (UniProt Q4ZIN3)
inactive: [1] -0.031 | [2] 0.01 | [3] 0.075 | [4] -0.013 | Nexturastat A -0.014 | vemurafenib 0.016 | [5] -0.032 | [6] -0.021 | givinostat 0.063 | barasertib -0.006 | [7] -0.005 | volasertib 0.014 | [8] -0.049 | epoxomicin 0.062 | [9] 0.046 | [10] -0.209 | [11] -0.057 | rosiglitazone 0.033 | [12] 0.054 | [13] -0.001

TMOD3 (UniProt Q9NYL9)
inactive: [1] 0.05 | [2] -0.024 | [3] 0.022 | [4] 0.013 | Nexturastat A 0.051 | vemurafenib 0.048 | [5] 0.051 | [6] 0.029 | givinostat 0.001 | barasertib 0.036 | [7] -0.016 | volasertib -0.175 | [8] 0.045 | epoxomicin 0.034 | [9] -0.027 | [10] 0.019 | [11] 0.022 | rosiglitazone 0.009 | [12] -0.006 | [13] 0.027

TMF1 (UniProt P82094)
inactive: [1] -0.011 | [2] 0.031 | [3] 0.013 | [4] 0.004 | Nexturastat A -0.002 | vemurafenib -0.024 | [5] -0.013 | [6] -0.077 | givinostat -0.031 | barasertib -0.003 | [7] 0.05 | volasertib -0.017 | [8] -0.047 | epoxomicin 0.02 | [9] 0.013 | [10] -0.01 | [11] -0.018 | rosiglitazone -0.015 | [12] 0.003 | [13] 0.06

TMOD1 (UniProt P28289)
inactive: [1] 0.052 | [2] -0.028 | [3] -0.038 | [4] -0.003 | Nexturastat A 0.048 | vemurafenib 0.143 | [5] 0.013 | [6] 0.113 | givinostat 0.05 | barasertib 0.079 | [7] -0.026 | volasertib -0.118 | [8] 0.054 | epoxomicin 0.054 | [9] 0.01 | [10] 0.046 | [11] 0.011 | rosiglitazone 0.009 | [12] 0.116 | [13] -0.028

TMEM65 (UniProt Q6PI78)
inactive: [1] 0.001 | [2] 0.023 | [3] 0.054 | [4] -0.092 | Nexturastat A 0.228 | vemurafenib -0.069 | [5] -0.092 | [6] -0.108 | givinostat 0 | barasertib 0.053 | [7] 0.16 | volasertib -0.03 | [8] 0.013 | epoxomicin -0.001 | [9] -0.035 | [10] -0.001 | [11] 0.084 | rosiglitazone 0.016 | [12] 0.002 | [13] 0.013

TMEM135 (UniProt Q86UB9)
inactive: [1] 0.01 | [2] 0.016 | [3] -0.013 | [4] 0.045 | Nexturastat A -0.108 | vemurafenib -0.209 | [5] -0.002 | [6] -0.041 | givinostat 0.012 | barasertib -0.016 | [7] 0.087 | volasertib -0.042 | [8] -0.013 | epoxomicin 0.025 | [9] -0.03 | [10] 0.071 | [11] -0.02 | rosiglitazone -0.033 | [12] -0.034 | [13] 0.08
